# Measured values from patent US12041933B1, “N-(pyrimidin-2-ylcarbamothioyl) benzamide as an eco-friendly insecticidal agent against Spodoptera littoralis (BOISD.)” (KING FAISAL UNIVERSITY, priority 2023, dated 2024).
# Test system: cotton leafworm, S. littoralis
# Test: Insecticidal bioassay screening (castor leaf dip), second and fourth instar larvae, laboratory strain
# Format: in vivo
# Conditions: after 72 hrs of treatment
# Method: Five concentrations (200, 100, 50, 25, 12.5 ppm) were designed for this synthetic compound and the reference Diflubenzuron compound as the dynamic ingredients based on mg/L via diluting the commercial formulation.
# In this experiment, castor leaves are immersed in each of the previously prepared concentrations of the components for 10 seconds and then left to dry for 60 minutes. Larvae of the second and fourth instars of each checked strain are prepared with treated leaves in gauze-covered glass containers for 72 hrs. An untreated control is made in which leaves are dipped in triton x-100 and distilled water only. Then the preserved leaves were removed & fresh, untreated leaves were provided for 72 hours. Three replicates (10 larvae each) were checked for each concentration. Daily inspection was carried out for all treatments and mortality percentages were recorded 3 days (72 hours) after treatment. The average mortality percentage was corrected employing Abbott's formula. The corrected mortality rate for each of the previously synthesized compounds is statistically calculated according to Finney (1970). Through this rate, the corresponding concentration test lines (LDP lines) are assessed.
SMILES,Slope (2nd instar larvae),Slope (4th instar larvae)
"O=C(NC(=O)c1c(F)cccc1F)Nc1ccc(Cl)cc1 [Diflubenzuron, reference compound]",1.20 ± 0.46,1.2 ± 0.36
"O=C(NC(=S)Nc1ncccn1)c1ccccc1 [Compound 3, N-(Pyrimidin-2-ylcarbamothioyl) benzamide]",1.018 ± 0.36,1.17 ± 0.35
